For 1 substance, binding results are on record in publication PMC8672621.

Chains of the proteins cited; added tags and fusions are not shown. Residues count along the entry.
UniProt Q01974, residues 34-943: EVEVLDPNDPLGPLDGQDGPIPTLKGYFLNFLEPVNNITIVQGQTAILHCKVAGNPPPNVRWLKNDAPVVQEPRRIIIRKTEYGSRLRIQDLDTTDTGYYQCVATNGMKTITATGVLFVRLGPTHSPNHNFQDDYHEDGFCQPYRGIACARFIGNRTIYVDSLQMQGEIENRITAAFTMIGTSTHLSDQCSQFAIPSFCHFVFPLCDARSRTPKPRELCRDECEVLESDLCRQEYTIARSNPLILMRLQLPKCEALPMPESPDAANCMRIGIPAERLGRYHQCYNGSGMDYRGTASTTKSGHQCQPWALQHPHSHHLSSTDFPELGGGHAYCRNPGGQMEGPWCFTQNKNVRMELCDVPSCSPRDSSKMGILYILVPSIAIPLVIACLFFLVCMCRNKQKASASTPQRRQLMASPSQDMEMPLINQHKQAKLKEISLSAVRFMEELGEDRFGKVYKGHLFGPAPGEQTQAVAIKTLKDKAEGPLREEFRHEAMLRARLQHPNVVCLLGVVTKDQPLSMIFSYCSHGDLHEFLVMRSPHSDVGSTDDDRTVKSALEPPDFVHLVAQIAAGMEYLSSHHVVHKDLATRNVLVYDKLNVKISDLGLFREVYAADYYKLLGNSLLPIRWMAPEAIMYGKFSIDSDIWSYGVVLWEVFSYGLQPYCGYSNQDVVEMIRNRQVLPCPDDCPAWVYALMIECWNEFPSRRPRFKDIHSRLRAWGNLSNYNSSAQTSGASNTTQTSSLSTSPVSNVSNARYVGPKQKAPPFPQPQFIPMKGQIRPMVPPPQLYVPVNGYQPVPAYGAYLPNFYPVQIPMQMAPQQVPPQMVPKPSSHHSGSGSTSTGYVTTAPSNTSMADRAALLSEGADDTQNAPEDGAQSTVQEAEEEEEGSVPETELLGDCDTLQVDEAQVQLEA

No constants are given. Whether binding was seen depends on the method and setting. In cells and extracts the contact can be indirect. Some entries that bind do so weakly or less than the wild type. Tags and fused reporters may be left off the sequences shown.

This assay deals with T1, V5-tagged active WNT11 (human) (UniProt O96014).
T1 sequence: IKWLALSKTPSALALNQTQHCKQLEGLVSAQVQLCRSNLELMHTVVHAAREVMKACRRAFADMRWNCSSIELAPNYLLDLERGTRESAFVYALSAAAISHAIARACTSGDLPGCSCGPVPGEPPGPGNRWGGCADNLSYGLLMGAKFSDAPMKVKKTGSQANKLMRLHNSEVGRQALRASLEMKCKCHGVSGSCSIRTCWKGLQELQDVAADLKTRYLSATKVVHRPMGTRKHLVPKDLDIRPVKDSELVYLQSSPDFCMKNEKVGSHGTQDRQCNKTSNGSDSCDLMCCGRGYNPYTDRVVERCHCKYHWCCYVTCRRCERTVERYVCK
Put plainly: co-IP; MCF-7 cells expressing ROR2 constructs transfected with V5-WNT11; 24 h later proteins crosslinked 30 min with 1 mM DSS in PBS + 1 mM MgCl2; lysis in 50 mM Tris/HCl pH 8.0, 150 mM NaCl, 1% NP-40; 500 ug protein with 1 ug V5 antibody or normal rabbit IgG 16 h at 4 °C, protein A/G agarose; ROR2 detected by western blot. In general terms: A western blot detects proteins with antibodies after separation by electrophoresis.

For “human ROR2, full length (pROR2-FL) (from UniProt Q01974 34-943) (receptor)”, the binding result is “binds”.
